Measurements taken from the supplement of paper PMC4604168 (melanoma cell lines).
Some of the results follow. Many values rest on one well or one pass, so single values are uncertain.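 Cells were imaged in 1,536-well plates, and nuclei stained with an antibody against cleaved PARP were counted against all DNA-stained nuclei to give the apoptosis fraction. Screening doses were chosen to leave most cells alive, and resting and induced cleaved-PARP levels differ strongly between cell lines.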

Tests used:
Test in all cases: cleaved PARP positive nuclei fraction relative to DMSO control; melanoma cells; higher = more apoptosis
Settings in all cases: library dose: low library concentration; 72 h
[1] = tested on: 501Mel
[2] = tested on: A101D
[3] = tested on: A2058
[4] = tested on: A375
[5] = tested on: C32
[6] = tested on: CBRC008 (line from a melanoma biopsy)
[7] = tested on: CBRC013 (line from a melanoma biopsy)
[8] = tested on: CBRC014 (line from a melanoma biopsy)
[9] = tested on: CBRC016 (line from a melanoma biopsy)
[10] = tested on: CBRC017 (line from a melanoma biopsy)
[11] = tested on: COLO792
[12] = tested on: COLO800
[13] = tested on: COLO829
[14] = tested on: G361
[15] = tested on: IPC-298
[16] = tested on: IST-MEL1
[17] = tested on: LB2518-MEL
[18] = tested on: LOXIMVI
[19] = tested on: MEL-HO

SMILES | cleaved PARP positive nuclei fraction [1] [%] | cleaved PARP positive nuclei fraction [2] [%] | cleaved PARP positive nuclei fraction [3] [%] | cleaved PARP positive nuclei fraction [4] [%] | cleaved PARP positive nuclei fraction [5] [%] | cleaved PARP positive nuclei fraction [6] [%] | cleaved PARP positive nuclei fraction [7] [%] | cleaved PARP positive nuclei fraction [8] [%] | cleaved PARP positive nuclei fraction [9] [%] | cleaved PARP positive nuclei fraction [10] [%] | cleaved PARP positive nuclei fraction [11] [%] | cleaved PARP positive nuclei fraction [12] [%] | cleaved PARP positive nuclei fraction [13] [%] | cleaved PARP positive nuclei fraction [14] [%] | cleaved PARP positive nuclei fraction [15] [%] | cleaved PARP positive nuclei fraction [16] [%] | cleaved PARP positive nuclei fraction [17] [%] | cleaved PARP positive nuclei fraction [18] [%] | cleaved PARP positive nuclei fraction [19] [%]
O=c1[nH]nc(Sc2ncc([N+](=O)[O-])s2)n1-c1ccc2c(c1)OCCO2 + NCC(=O)Nc1ccc(-n2nc(C(F)(F)F)cc2-c2ccc3c(ccc4ccccc43)c2)cc1 [OSU03012] (first compound 0.2 µM, partner dose 1 µM) | 288 | 76 | 84.6 | 2970 | 58 | 50.1 | 188 | 66.9 | 146 | 93.5 | 75.2 | 180 | 108 | 101 | 71.9 | 101 | 170 | 159 | 72.5
Cc1cc(Nc2cc(N3CCN(C)CC3)nc(Sc3ccc(NC(=O)C4CC4)cc3)n2)n[nH]1 [Tozasertib] + CN(C)S(=O)(=O)c1ccc2c(c1)/C(=C/c1cc3c([nH]1)CCCC3)C(=O)N2 [SU6656] (first compound 0.006 µM, partner dose 0.4 µM) | 223 | 55.2 | 51.7 | 236 | 116 | 188 | 105 | 89.1 | 111 | 84.3 | 123 | 185 | 78.2 | 113 | 183 | 44.7 | 33.7 | 474 | 94
COc1cc([C@@H]2c3cc4c(cc3[C@@H](O[C@@H]3O[C@@H]5CO[C@@H](C)O[C@H]5[C@H](O)[C@H]3O)[C@H]3COC(=O)[C@H]23)OCO4)cc(OC)c1O [etoposide] + COc1cc2c(Oc3ccc4[nH]c(C)cc4c3F)ncnc2cc1OCCCN1CCCC1 [cediranib] (first compound 0.02 µM, partner dose 0.4 µM) | 86.7 | 75.6 | 68.5 | 123 | 48.9 | 67.9 | 101 | 82.2 | 92.3 | 203 | 81.9 | 117 | 70.6 | 121 | 193 | 63.1 | 66.8 | 238 | 73.9
CC[C@]1(O)C[C@H]2CN(CCc3c([nH]c4ccccc34)[C@@](C(=O)OC)(c3cc4c(cc3OC)N(C=O)[C@H]3[C@@](O)(C(=O)OC)[C@H](OC(C)=O)[C@]5(CC)C=CCN6CC[C@]43[C@@H]65)C2)C1 [vincristine] + NC(=O)Nc1cc(-c2cccc(F)c2)sc1C(=O)N[C@H]1CCCNC1 [AZD7762] (first compound 0.0001 µM, partner dose 0.02 µM) | 47.5 | 122 | 1200 | 1030 | 320 | 182 | 138 | 111 | 171 | 121 | 132 | 75.8 | 94.4 | 72.1 | 61.4 | 126 | 30.5 | 130 | 30.7
CC[C@]1(O)C[C@H]2CN(CCc3c([nH]c4ccccc34)[C@@](C(=O)OC)(c3cc4c(cc3OC)N(C=O)[C@H]3[C@@](O)(C(=O)OC)[C@H](OC(C)=O)[C@]5(CC)C=CCN6CC[C@]43[C@@H]65)C2)C1 [vincristine] + CC(C)(C)c1cnc(CSc2cnc(NC(=O)C3CCNCC3)s2)o1 [SNS-032] (first compound 0.0001 µM, partner dose 0.01 µM) | 74.5 | 129 | 848 | 145 | 286 | 165 | 92.7 | 81.1 | 59.6 | 80.8 | 80.7 | 297 | 91.8 | 124 | 83.8 | 291 | 57.7 | 22.5 | 42.8
O=c1[nH]nc(Sc2ncc([N+](=O)[O-])s2)n1-c1ccc2c(c1)OCCO2 + Cn1cncc1[C@@](N)(c1ccc(Cl)cc1)c1ccc2c(c1)c(-c1cccc(Cl)c1)cc(=O)n2C [tipifarnib] (first compound 0.2 µM, partner dose 0.01 µM) | 92.2 | 171 | 86.1 | 96.9 | 99.2 | 163 | 139 | 92.4 | 111 | 201 | 215 | 139 | 83.9 | 136 | 49.7 | 33.7 | 112 | 94.5 | 111
N#CC[C@H](C1CCCC1)n1cc(-c2ncnc3[nH]ccc23)cn1 [ruxolitinib] + NCC(=O)Nc1ccc(-n2nc(C(F)(F)F)cc2-c2ccc3c(ccc4ccccc43)c2)cc1 [OSU03012] (first compound 1 µM, partner dose 1 µM) | 635 | 164 | 53.8 | 1100 | 66.6 | 246 | 71.3 | 96.5 | 286 | 132 | 73.7 | 36.5 | 110 | 122 | 243 | 1740 | 87.5 | 31.7 | 106
Cc1cc(Nc2cc(N3CCN(C)CC3)nc(Sc3ccc(NC(=O)C4CC4)cc3)n2)n[nH]1 [Tozasertib] + CC1(C)NC(=O)N(c2ccc([N+](=O)[O-])c(C(F)(F)F)c2)C1=O [nilutamide] (first compound 0.006 µM, partner dose 1 µM) | 86.3 | 84.3 | 178 | 65.7 | 114 | 56.7 | 107 | 78.2 | 150 | 87.9 | 108 | 59.4 | 109 | 44.6 | 135 | 40.2 | 104 | 63.9 | 425
Cc1cc(Nc2cc(N3CCN(C)CC3)nc(Sc3ccc(NC(=O)C4CC4)cc3)n2)n[nH]1 [Tozasertib] + COc1cc2c(Oc3ccc4[nH]c(C)cc4c3F)ncnc2cc1OCCCN1CCCC1 [cediranib] (first compound 0.006 µM, partner dose 0.4 µM) | 96.6 | 82.8 | 230 | 123 | 136 | 253 | 120 | 82.4 | 29.9 | 73.6 | 104 | 92.1 | 112 | 139 | 62.1 | 114 | 213 | 63.9 | 31.7
CC[C@]1(O)C[C@H]2CN(CCc3c([nH]c4ccccc34)[C@@](C(=O)OC)(c3cc4c(cc3OC)N(C=O)[C@H]3[C@@](O)(C(=O)OC)[C@H](OC(C)=O)[C@]5(CC)C=CCN6CC[C@]43[C@@H]65)C2)C1 [vincristine] + Cn1cncc1[C@@](N)(c1ccc(Cl)cc1)c1ccc2c(c1)c(-c1cccc(Cl)c1)cc(=O)n2C [tipifarnib] (first compound 0.0001 µM, partner dose 0.01 µM) | 230 | 116 | 1640 | 125 | 237 | 141 | 182 | 81.7 | 135 | 139 | 66 | 104 | 198 | 34.4 | 50.4 | 102 | 58 | 540 | 155
CCCCCCCCCCCCCCCCCCOP(=O)([O-])OC1CC[N+](C)(C)CC1 [Perifosine] + C=CCn1c(=O)c2cnc(Nc3ccc(N4CCN(C)CC4)cc3)nc2n1-c1cccc(C(C)(C)O)n1 [MK1775] (first compound 0.4 µM, partner dose 0.02 µM) | 92.6 | 78.2 | 176 | 2680 | 205 | 45.2 | 112 | 95.4 | 210 | 95 | 79.2 | 55.3 | 62 | 84.3 | 97.3 | 150 | 111 | 294 | 39
CCCCCCCCCCCCCCCCCCOP(=O)([O-])OC1CC[N+](C)(C)CC1 [Perifosine] + OCCn1cc(-c2cnc3nnn(Cc4ccc5ncccc5c4)c3n2)cn1 [PF04217903] (first compound 0.4 µM, partner dose 1 µM) | 267 | 347 | 299 | 3600 | 109 | 124 | 97.8 | 443 | 221 | 111 | 275 | 83.1 | 143 | 136 | 97.2 | 53.9 | 238 | 177 | 41.1
CC[C@]1(O)C[C@H]2CN(CCc3c([nH]c4ccccc34)[C@@](C(=O)OC)(c3cc4c(cc3OC)N(C=O)[C@H]3[C@@](O)(C(=O)OC)[C@H](OC(C)=O)[C@]5(CC)C=CCN6CC[C@]43[C@@H]65)C2)C1 [vincristine] + COc1cc(Nc2ncc(F)c(Nc3ccc4c(n3)NC(=O)C(C)(C)O4)n2)cc(OC)c1OC [Tamatinib] (first compound 0.0001 µM, partner dose 0.4 µM) | 202 | 132 | 803 | 237 | 49.5 | 593 | 142 | 98.5 | 152 | 131 | 162 | 155 | 82.9 | 112 | 54.7 | 166 | 248 | 49.1 | 173
CCCCCCCCCCCCCCCCCCOP(=O)([O-])OC1CC[N+](C)(C)CC1 [Perifosine] + COc1cc(Nc2ncc(F)c(Nc3ccc4c(n3)NC(=O)C(C)(C)O4)n2)cc(OC)c1OC [Tamatinib] (first compound 0.4 µM, partner dose 0.4 µM) | 217 | 156 | 312 | 10400 | 198 | 532 | 134 | 111 | 136 | 123 | 170 | 60.1 | 89.7 | 132 | 185 | 97.9 | 143 | 149 | 160
Cc1cc(Nc2cc(N3CCN(C)CC3)nc(Sc3ccc(NC(=O)C4CC4)cc3)n2)n[nH]1 [Tozasertib] + C=CCn1c(=O)c2cnc(Nc3ccc(N4CCN(C)CC4)cc3)nc2n1-c1cccc(C(C)(C)O)n1 [MK1775] (first compound 0.006 µM, partner dose 0.02 µM) | 71.8 | 98.5 | 103 | 183 | 96.8 | 153 | 110 | 104 | 184 | 74.9 | 46.3 | 101 | 67.8 | 75.5 | 103 | 48.2 | 132 | 199 | 71.4
Cc1cc(Nc2cc(N3CCN(C)CC3)nc(Sc3ccc(NC(=O)C4CC4)cc3)n2)n[nH]1 [Tozasertib] + O=C(O)c1ccc(-c2c[nH]c3ncc(-c4ccccc4)cc23)cc1C1CCCC1 [GSK650394] (first compound 0.006 µM, partner dose 0.16 µM) | 71.2 | 45.6 | 177 | 85.8 | 125 | 336 | 103 | 111 | 248 | 128 | 118 | 44.9 | 140 | 196 | 46.5 | 58.7 | 285 | 88.3 | 168

A few values from the results shown.
cleaved PARP positive nuclei fraction [17] [%], CCCCCCCCCCCCCCCCCCOP(=O)([O-])OC1CC[N+](C)(C)CC1 [Perifosine] + COc1cc(Nc2ncc(F)c(Nc3ccc4c(n3)NC(=O)C(C)(C)O4)n2)cc(OC)c1OC [Tamatinib] (first compound 0.4 µM, partner dose 0.4 µM) reads 143
cleaved PARP positive nuclei fraction [18] [%], Cc1cc(Nc2cc(N3CCN(C)CC3)nc(Sc3ccc(NC(=O)C4CC4)cc3)n2)n[nH]1 [Tozasertib] + CC1(C)NC(=O)N(c2ccc([N+](=O)[O-])c(C(F)(F)F)c2)C1=O [nilutamide] (first compound 0.006 µM, partner dose 1 µM) reads 63.9
